Data from PMC7699381, “Rare-Earth Metal Complexes of the Antibacterial Drug Oxolinic Acid: Synthesis, Characterization, DNA/Protein Binding and Cytotoxicity Studies” (Molecules, 2020).

System: EB-DNA system (CT-DNA)
Assay: Competitive binding assay with ethidium bromide (EB) through fluorescence spectroscopy
Set-up: species or system calf
Conditions: modified Hill fit
Source text: The manner of binding to the DNA macromolecule can be investigated through competitive binding studies with ethidium bromide (3,8-diamino-5-ethyl-6-phenylphenanthridinium bromide), a fluorescent dye; due to its aromatic ring, it can intercalate between two adjacent base pairs in the DNA structure and form a complex which emits fluorescent light; displacing EB results in a quenching effect. The Stern-Volmer constant (KSV) and the dissociation constant (K50) have been calculated from the resulting data.
Competitive binding studies were carried out on a Jasco FP 6500 fluorometer at room temperature, using quartz cells of 1 cm path-length. The fluorescence spectra were recorded on 1.6 mL samples containing 10 µM CT-DNA and 2 µM EB in the absence and presence of increasing amounts (0–40 µM with an increment of 5 µM) of complexes and free ligands, respectively, after being kept in contact for 10 min at room temperature, under continuous stirring and in the dark. The excitation wavelength used was 500 nm and the spectra was recorded in the 520–800 nm range. Two control samples were used, the first one containing DMSO, DNA and EB and the second one just the complex.
Data from the assay can be interpreted using the classical Stern-Volmer equation (Equation (3)):(3) F0/F=1+ KSV·[Q] where F0 and F are the fluorescence intensities of the EB-DNA samples in the absence and presence of the tested compounds and [Q] is the concentration of the compound; KSV is the Stern-Volmer constant and can be calculated from the plot of F0/F vs. [Q] as the slope.
The ratio of binding relative to the control sample exposed only to DMSO was plotted against the logarithm of concentration. The data points were fitted using the modified Hill function with offset (Origin®) (Equation (4)):(4) y=A1+(A2−A1)×x^n/K50^n+x^n where y is the ratio of binding (F/F0) and x is the concentration, A1 is the minimum of y values, A2 is the maximum of y values, K50 is the concentration corresponding to 50% binding and n is the Hill coefficient.

`CCn1cc(C(=O)O)c(=O)c2cc3c(cc21)OCO3` [oxo, 5-ethyl-5,8-dihydro-8-oxo-l,3 dioxolo[4,5-g]quinoline-7-carboxylic acid, reference compound] and `CCn1cc(C(=O)[O][Sm]([OH])[O]C(=O)c2cn(CC)c3cc4c(cc3c2=O)OCO4)c(=O)c2cc3c(cc21)OCO3.O.O` [Sm oxo, [Sm(oxo)(OH)(H2O)] · H2O] are within error of each other in “n (Hill coefficient, EB Displacement Assay)” value: 2.98 ± 1.14 for the first, 2.44 ± 0.82 for the second.

`CCn1cc(C(=O)[O][Eu]([OH])[O]C(=O)c2cn(CC)c3cc4c(cc3c2=O)OCO4)c(=O)c2cc3c(cc21)OCO3.O` [Eu oxo, [Eu(oxo)(OH)(H2O)]] and `CCn1cc(C(=O)[O][La]([OH])[O]C(=O)c2cn(CC)c3cc4c(cc3c2=O)OCO4)c(=O)c2cc3c(cc21)OCO3.O` [La oxo, [La(oxo)(OH)(H2O)]] are within error of each other in “n (Hill coefficient, EB Displacement Assay)” value: 2.65 ± 0.73 for the first, 3.44 ± 0.94 for the second.

Compared with [Tb(oxo)(OH)(H2O)] · 0.5 H2O [Tb oxo], `CCn1cc(C(=O)[O][Y]([OH])[O]C(=O)c2cn(CC)c3cc4c(cc3c2=O)OCO4)c(=O)c2cc3c(cc21)OCO3.O` [Y oxo, [Y(oxo)(OH)(H2O)]] is lower in “n (Hill coefficient, EB Displacement Assay)” value: 2.68 ± 0.19 for the first, 1.92 ± 0.45 for the second.

[Gd(oxo)(OH)(H2O)]·0.5H2O [Gd oxo] was tested, and the “n (Hill coefficient, EB Displacement Assay)” value was 1.66 ± 0.47.
